In publication PMC11330772, “Unveiling the kinetic versatility of aryl-alcohol oxidases with different electron acceptors” (Frontiers in Bioengineering and Biotechnology, 2024):

Test system: PeAAO
Assay: Stopped-flow oxidative half-reaction (flavin reoxidation by O2 or BQ)
Conditions: PeAAO versus BaAAO

O=C1C=CC(=O)C=C1 [BQ, 1,4-benzoquinone]
PeAAO more efficient at reducing the acceptor than BaAAO (reoxidation rates): ≤ 9 fold

O=O [O2]
PeAAO more efficient at reducing the acceptor than BaAAO (reoxidation rates): up to 6 fold
